The experiment deals with human IL-17AA (Homo sapiens, UniProt Q16552). The experiment is described as follows: IL-8 release assay in human epithelial keratinocytes adult (HEKa). The note with it: read-out: Rel EC50 IL-8 release assay, HEKa cells, 3 ng/mL HEK-human IL-17AA + 10 ng/mL human TNFalpha. The protocol:
Example 138: IL-8 Release Assay in Human Epithelial Keratinocytes Adult (HEKa)
Keratinocytes were seeded at 3500 cells/well in 384-well ViewPlates (Perkin Elmer) in Epilife medium (Thermo Fisher) containing human keratinocyte growth supplement (HKGS) without hydrocortisone and incubated in a humid incubator at 37° C. 5% CO2, overnight. The following day growth medium was removed and 25 μl fresh Epilife medium added. 75 nL test compound in 100% DMSO was added into each well reserved for test compounds, by the use of acoustic pipetting. The remaining wells received an equal volume of DMSO only, as vehicle control, or terfenadine in DMSO, as a positive control for any cytotoxic compounds. Subsequently, another 25 μL Epilife medium was added to each well. […] IL-8 released from the cells was measured by the use of a commercial homogenous time-resolved fluorescence (HTRF) assay (CisBio). […] Time-resolved fluorescence was read at 665 vs 620 nm, with excitation at 320 nm, and IL-8 levels calculated as percent of controls. […] Cytotoxicity was measured in the cell-containing Viewplates following addition of 7 μL PrestoBlue (Thermo Fisher) and incubation for 2.5-3 hours at room temperature, by measuring fluorescence at 615 nm (excitation at 535 nm). Fluorescence was directly proportional to the amount of metabolic activity. Reduction of fluorescence signal indicated cytotoxicity. […]

Sequences of proteins named here, by UniProt entry; tags and fusion partners are left off. Residues count along the entry.
UniProt Q16552, 24-155 limits assumed: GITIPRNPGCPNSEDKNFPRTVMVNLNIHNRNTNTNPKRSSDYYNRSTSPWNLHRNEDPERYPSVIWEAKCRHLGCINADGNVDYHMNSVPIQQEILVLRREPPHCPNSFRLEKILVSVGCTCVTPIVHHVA

Read-outs that look alike come from different tables or passages of the source. Structures were worked out from names or drawings and are uncertain.

As for `CCn1nccc1C(=O)N[C@H](C(=O)Nc1ccc(-c2c(C)nn(COP(=O)(O)O)c2C)cc1)C(C1CC1)C1CC1`, the EC50 (as a rule, the concentration giving half of the maximal effect) (tested form: disodium salt) was below 100 nM. `Cc1nn(CO)c(C)c1-c1ccc(NC(=O)[C@@H](NC(=O)c2ccnn2C(C)C)C(C2CC2)C2CC2)cc1`: the EC50 is below 100 nM.

The record behind these values is patent US11377425B1, “Small molecule modulators of IL-17” (LEO Pharma A/S, priority 2018, dated 2022).
